Reference: publication PMC3887101
These are yes or no findings as the source states them, for the method shown. Binding seen in cells or lysates may run through a third protein. Some entries that bind do so weakly or less than the wild type. Tags and fused reporters may be left off the sequences shown.

Protein sequences, listed by entry. Tags and fused reporters are not part of them.
UniProt P0A7Z4: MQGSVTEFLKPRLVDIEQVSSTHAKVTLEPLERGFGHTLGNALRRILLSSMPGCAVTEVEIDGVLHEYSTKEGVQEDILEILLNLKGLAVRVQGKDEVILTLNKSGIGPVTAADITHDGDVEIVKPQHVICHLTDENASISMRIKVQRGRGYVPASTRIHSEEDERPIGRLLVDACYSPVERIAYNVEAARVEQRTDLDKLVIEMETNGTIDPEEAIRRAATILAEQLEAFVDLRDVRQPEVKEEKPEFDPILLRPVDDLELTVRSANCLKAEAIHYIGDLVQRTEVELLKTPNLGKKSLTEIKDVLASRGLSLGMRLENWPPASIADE
UniProt P13445: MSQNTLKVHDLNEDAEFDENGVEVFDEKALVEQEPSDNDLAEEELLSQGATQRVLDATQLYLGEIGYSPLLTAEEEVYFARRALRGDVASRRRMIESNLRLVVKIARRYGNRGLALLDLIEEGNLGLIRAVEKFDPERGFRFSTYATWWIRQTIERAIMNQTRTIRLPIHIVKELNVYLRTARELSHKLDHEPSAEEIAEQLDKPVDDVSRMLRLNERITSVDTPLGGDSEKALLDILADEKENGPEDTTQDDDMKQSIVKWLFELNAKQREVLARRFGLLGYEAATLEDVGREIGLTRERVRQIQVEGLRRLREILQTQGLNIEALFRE

Target: T1, His-tagged nitrite-sensitive repressor NsrR (UniProt P0AF63)
T1 sequence: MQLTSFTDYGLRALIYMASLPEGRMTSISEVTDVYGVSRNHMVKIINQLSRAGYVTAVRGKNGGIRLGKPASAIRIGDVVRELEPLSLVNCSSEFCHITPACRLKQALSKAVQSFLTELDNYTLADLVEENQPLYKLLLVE
Experiment: pull-down

HA-tagged RNA polymerase subunit alpha (RpoA) (from UniProt P0A7Z4 1-329)
binding: binds

HA-tagged RNA polymerase subunit sigma 38 (RpoS) (from UniProt P13445 1-330)
binding: binds
